Data as given in PubChem BioAssay AID485298 (National Center for Advancing Translational Sciences (NCATS), 2010).
The whole screen tested about 320,000 compounds, of which about 740 (0.23%) were called active. Inconclusive results, whose numbers are uncertain, are shown with a selection of clear calls. Calls come from the whole dose curve; as a rule, active = well fitted activation curve with a large enough effect; inconclusive = small, poorly fitted or top-dose-only effect; inactive = no such curve, though single readings can be large or run the other way. Where the call is inconclusive, the potency comes from a doubtful curve fit.

Assay: qHTS Assay for Small Molecule Inhibitors of Mitochondrial Division or Activators of Mitochondrial Fusion; note: nearly all actives have a fitted effect of over 45% in size
Conditions: S. cerevisiae fusion-defective mutant growth rescue, CellTiterGlo 48 h; series mostly up to 46.1 µM
Outline: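 Read-out: ATP-based luminescence (CellTiterGlo, 10 min ambient) reporting growth of fusion-defective ts yeast after 48 hours at 37C on glycerol/ethanol YPEG medium in the presence of compound.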
Potency is the fitted concentration of half-maximal effect.

Row | Structure (SMILES) | Potency
1 | O=C(CSc1nc2ccccc2c(=O)n1-c1ccccc1)N1CCCc2ccccc21 | inconclusive: 10 µM [activator, partial curve]
2 | Cc1cccc(C)c1Nc1nnc(SCc2nc3ccccc3s2)s1 | inconclusive: 22.4 µM [activator, single point]
3 | COc1cc2[nH]c3c(=O)n(CCN(C(C)C)C(C)C)cnc3c2cc1OC | inactive
4 | Cc1cc(C)n(Cc2ccc(C(=O)Nc3cccc(Br)c3)o2)n1 | inconclusive: 31.6 µM [activator, single point]
5 | COc1ccc(-c2cc(C(=O)OC3CCOC3=O)c3ccccc3n2)cc1 (stereo not given) | inactive
6 | Cc1ccc2[nH]c(=O)c(CN(Cc3ccc4c(c3)OCO4)Cc3nnnn3C3CCCC3)cc2c1 | inconclusive: 22.4 µM [activator, single point]
7 | COc1ccc(C(=O)Nc2cc3c(cc2N2CCCCC2)n(C)c(=O)n3C)cc1OC | active: 12.6 µM
8 | O/N=C/c1ccc(OCc2ccccc2F)c(Cl)c1 | inconclusive: 15.8 µM [activator, partial curve]
9 | CCc1nnc(NC(=O)C2c3ccccc3Oc3ccccc32)s1 | inconclusive: 17.8 µM [activator, single point]
10 | O=C(NC(=S)NC(c1ccccc1)c1ccncc1)c1ccccc1 (stereo not given) | inconclusive: 35.5 µM [activator, single point]
11 | S=c1[nH]nc(COc2ccccc2)n1/N=C/c1ccncc1 | inactive
12 | Cc1ccc(NCc2n[nH]c(=S)n2Cc2ccccc2)cc1Cl | inconclusive: 35.5 µM [activator, single point]
13 | Cc1ccc(-c2ccc(=O)n(CCC(=O)N3CCN(c4cccc(C)c4)C(C)C3)n2)cc1 (stereo not given) | inconclusive: 14.1 µM [activator, partial curve]
14 | O=C1C=C(c2ccc3[nH]ccc3c2)C[C@@H](c2ccc(Cl)cc2)C1 | inconclusive: 3.16 µM [activator, partial curve]
15 | O=C(O)/C(=C\c1ccc(F)cc1)c1ccc(-c2ccccc2)cc1 | inconclusive: 3.55 µM [activator, partial curve]
16 | CC(C)P(=O)(c1cccc(C(=O)O)c1)C(C)C | inactive
17 | Cc1ccc(N=c2c([N+](=O)[O-])nn(-c3ccccc3)n2O)c(C)c1 | inactive
18 | COc1ccccc1N(C)S(=O)(=O)c1ccc(C(=O)Nc2ccc3nc(C)sc3c2)cc1 | inconclusive: 35.5 µM [activator, single point]
19 | COc1ccc(S[C@@H](CCN2CC[C@H](C)CCC2=O)c2ccccc2)cc1 | inconclusive: 28.2 µM [activator, single point]
20 | N#CCC(=O)N/N=C/c1ccc(OCc2ccccc2)cc1 | inactive
21 | COCc1cccc(C2=CC(=O)C[C@H](c3ccc(F)cc3)C2)c1 | inconclusive: 28.2 µM [activator, single point]
22 | Cn1c(N)c(N2CCN(c3ccccc3)CC2)c(=O)[nH]c1=O | inconclusive: 35.5 µM [activator, single point]
23 | CCN1C(=O)[C@@H]2[C@@H](c3ccc(-c4cccc(Cl)c4)c(OC)c3)N3CCCC[C@@]3(C(=O)OC)[C@@H]2C1=O | inconclusive: 14.1 µM [activator, single point]
24 | COc1ccc([C@H]2CC(=O)C=C(c3ccc(C)c(F)c3)C2)cc1 | inconclusive: 20 µM [activator, single point]

Row | Structure (SMILES) | Potency
25 | O=C(COc1ccccc1Br)NCCC1=CCCCC1 | inconclusive: 14.1 µM [activator, partial curve]
26 | COc1ccc(C)cc1COC(=O)c1[nH]c(C)c(C(C)=O)c1C | inconclusive: 20 µM [activator, partial curve]
27 | COc1ccc(O)c(C(=O)c2cnn(S(=O)(=O)c3ccc(C)cc3)c2)c1 | inconclusive: 22.4 µM [activator, single point]
28 | Cc1cc(NC(=O)CCCC(=O)OCC(F)(F)C(F)F)cc(C)c1C(=O)O | inactive
29 | COc1ccc2c(c1)Cc1sc(NC(=O)c3cccc(Br)c3)nc1-2 | inactive
30 | O=C1C=C(c2cccc(Cl)c2O)C[C@@H](c2ccc(Cl)cc2)C1 | active: 12.6 µM
31 | Cc1ccccc1NC(=O)c1nc[nH]c1C(=O)NCc1ccccc1 | inactive
32 | Cc1ccc(NC(=O)Cc2ccc(-c3ccccc3)cc2)nc1 | inactive
33 | Cc1cc(=O)oc2c(C(=O)/C=C\c3cccs3)c(O)ccc12 | inconclusive: 11.2 µM [activator, partial curve]
34 | CCOC(=O)/C=C/C(=O)OCC(=O)Nc1c(Cl)cccc1Cl | inactive
35 | Cc1ccc(NC(=O)COc2nsnc2N2CCOCC2)cc1Cl | inactive
36 | CC(C)C(=O)Nc1cccc(-c2cnc3ccccc3n2)c1 | inactive
37 | Cc1cc(C)c2c(N)c(C(=O)N/N=C/c3cccnc3)sc2n1 | inactive
38 | CNC(=O)NC(=O)CN1C(=O)NC2(CCOc3ccccc32)C1=O (stereo not given) | inconclusive: 35.5 µM [activator, partial curve]
39 | COc1ccc(-c2cc(C(=O)N/N=C/c3cccnc3)c3cc(C)cc(C)c3n2)cc1 | inactive
40 | COc1ccc(/C=C2/SC(=O)N(NS(=O)(=O)c3ccccc3)C2=S)cc1OC | inconclusive: 14.1 µM [activator, partial curve]
41 | CN(C)S(=O)(=O)c1cccc(C(=O)NCC(C)(C)CNC(=O)c2cccc(S(=O)(=O)N(C)C)c2)c1 | inconclusive: 2.82 µM [activator, partial curve]
42 | O=S(=O)(Nc1ccc2c(c1)OCCO2)c1ccc2oc3ccccc3c2c1 | inconclusive: 15.8 µM [activator, single point]
43 | O=C(Nc1cc(Sc2ccccn2)cc([N+](=O)[O-])c1)c1cccc(F)c1 | active: 17.8 µM
44 | COc1cc2c(cc1NC(=O)C(C)OC(=O)/C=C/c1ccc(OC(F)F)cc1)oc1ccccc12 (stereo not given) | inconclusive: 35.5 µM [activator, single point]
45 | Cc1cc(NC(=O)Nc2ccc3c(ccn3C)c2)sn1 | inconclusive: 29.1 µM [activator, single point]
46 | CS(=O)(=O)c1ccc(Cl)c(NC(=O)COC(=O)C23CC4CC(CC(C4)C2)C3)c1 | inconclusive: 12.6 µM [activator, single point]
47 | Cc1cc(C)c2c(c1)NC(c1cc3c(cc1Br)OCO3)C1CC=CC21 (stereo not given) | inconclusive: 8.91 µM [activator, partial curve]
48 | C=CCN(c1ccccc1)S(=O)(=O)c1cccc(C(=O)Nc2ccc(N3CCOCC3)cc2)c1 | inactive

Row | Structure (SMILES) | Potency
49 | Cc1ccc2c(c1)-c1c(ssc1=S)C(C)(C)N2C(=O)CSC1=NCCS1 | inactive
50 | CC1CCC(C(C)C)C(OC(=O)COC(=O)c2ccc(N)cc2)C1 (stereo not given) | inconclusive: 15.8 µM [activator, single point]
51 | Cc1oc(-c2ccccc2)nc1C(=O)N1CCN(c2ccc(F)cc2)CC1 | inactive
52 | Cc1nc(N2CCN(C(=O)c3ccco3)CC2)c(C#N)c2c1CCCC2 | inconclusive: 12.6 µM [activator, partial curve]
53 | Cc1cccn2c(=O)nc(SCC(=O)N3N=C(c4cccs4)CC3c3ccc(F)cc3)nc12 (stereo not given) | inconclusive: 12.6 µM [activator, single point]
54 | O=[N+]([O-])c1nn(-c2ccc(Cl)cc2)n(O)c1=NCc1cccnc1 | inconclusive: 12.6 µM [activator, partial curve]
55 | COc1ccc(C(C(=O)NC2CCCC2)N(Cc2ccccc2)C(=O)c2nsc(Cl)c2Cl)cc1 (stereo not given) | inconclusive: 15.8 µM [activator, single point]
56 | O=C(O)c1ccc(N=Nc2c(O)[nH]c3cc(Cl)ccc23)cc1 | inconclusive: 28.2 µM [activator, single point]
57 | CS(=O)(=O)NN1C(=O)c2ccccc2NC1c1ccccc1 (stereo not given) | inconclusive: 20 µM [activator, partial curve]
58 | Cc1ccc(NC(=O)c2cc(N(C)C)ccc2[P+](=O)O)cc1 | inactive
59 | Nn1c(SCC(=O)Nc2ccc(F)c(F)c2)nnc1C1CCCCC1 | inactive
60 | COc1ccc(-c2c(C)c3ccc(O)cc3oc2=O)cc1 | inconclusive: 35.5 µM [activator, partial curve]
61 | NC(=O)c1cc(Cc2ccccc2)sc1NC(=O)c1ccco1 | active: 15.8 µM
62 | COc1cccc2cc(C(=O)N3CCN(c4ccc(C)cc4C)CC3)c(=O)oc12 | inconclusive: 31.6 µM [activator, single point]
63 | COC(=O)[C@H](NC(=O)c1cc(-c2ccccc2)nc2ccccc12)c1ccccc1 | inconclusive: 4.61 µM [activator, full curve]
64 | COc1cc(/C=C/C(=O)OCC(=O)NCCN2C(=O)CSC2=O)ccc1OCC#N | inactive
65 | CCN(CC)C(=O)CSc1n[nH]c(=O)n1CCc1ccccc1 | inactive
66 | Brc1ccc(-c2csc3[n+]2CCCCC3)cc1 | inconclusive: 14.1 µM [activator, partial curve]
67 | COc1cccc(C(=O)N2N=C(c3ccccc3)CC2(O)C(F)(F)F)c1 (stereo not given) | inconclusive: 15.8 µM [activator, single point]
68 | COc1ccccc1CSc1ncc(-c2ccc([N+](=O)[O-])cc2)[nH]1 | inconclusive: 12.6 µM [activator, partial curve]
69 | CC/C(=N/Nc1ccccc1)c1cnnc(-c2ccccc2)n1 | inconclusive: 20 µM [activator, single point]
70 | Cc1cccc(NC(=O)c2cccc(S(=O)(=O)N3CCc4ccccc4C3)c2)n1 | inconclusive: 25.1 µM [activator, single point]

Entries listed so far with a furan ring, fused or not, in the order listed:
Row | Structure (SMILES) | Potency
4 | Cc1cc(C)n(Cc2ccc(C(=O)Nc3cccc(Br)c3)o2)n1 | inconclusive: 31.6 µM [activator, single point]
42 | O=S(=O)(Nc1ccc2c(c1)OCCO2)c1ccc2oc3ccccc3c2c1 | inconclusive: 15.8 µM [activator, single point]
44 | COc1cc2c(cc1NC(=O)C(C)OC(=O)/C=C/c1ccc(OC(F)F)cc1)oc1ccccc12 (stereo not given) | inconclusive: 35.5 µM [activator, single point]
52 | Cc1nc(N2CCN(C(=O)c3ccco3)CC2)c(C#N)c2c1CCCC2 | inconclusive: 12.6 µM [activator, partial curve]
61 | NC(=O)c1cc(Cc2ccccc2)sc1NC(=O)c1ccco1 | active: 15.8 µM
